Experimental data: patent US20120070511A1, “MITOCHONDRIAL INHIBITORS AND USES THEREOF” (priority 2009, published 2012)
At least one compound was matched to its structure with a doubt left.

Key:
myeloid cells [1] = test: Annexin-V staining of bone marrow aspirate (apoptosis); format: cell-based, human; conditions: patient #3; 12 hours
plasma cells [2] = test: Bone marrow aspirate of multiple myeloma patients, flow cytometry cell count (CD45/CD38); format: cell-based, human
plasma cells [3] = test: Annexin-V staining of bone marrow aspirate (apoptosis); conditions: patient #3; 12 hours
[4] = system: CHOP/GADD153 and cleaved caspase 3 in 4 MM cell lines; test: Western blot of CHOP/GADD153 and cleaved caspase 3 (UPR-mediated apoptosis); format: cell-based
Experimental: Western Blot analysis: Cells are plated at 10^4 cell/cm^−2 for attached cells and 3×10^5/ml for suspension cells and grown under drug treatment for the indicated times. At the end of the treatment period, cells are collected and lysed with 1% SDS in 80 mM Tris-HCL (ph 7.4) buffer supplemented with a proteinase inhibitor cocktail. DNA is fragmented by sonication and protein concentrations are measured by microBCA protein assay kit (Pierce, Rockford, Ill.). Samples are mixed with 3× Laemmli sample buffer (Cell Signaling, Danvers, Mass.) and 40 μg of protein was run on a 12% SDS-polyacrylamide gel. Gels are transferred to nitrocellulose membranes (Amersham, Piscataway, N.J.) and probed with monoclonal rabbit anti-GRP94, anti GRP-78, anti-PDI, anti-CHOP/GADD153, anti-cleaved caspase 3 (Cell Signaling, Danvers, Mass.) and monoclonal mouse anti-β-actin (Sigma, St. Louis, Mo.). Following probing, membranes are washed and incubated with HRP-conjugated secondary antibody (Invitrogen, Carlsbad, Calif.). Following addition of 1:3 diluted femto-chemiluminescent substrate (Pierce, Rockford, Ill.) membranes were exposed to blue autoradiographic film (ISC bioexpress, Kaysville, Utah). […] When needed, the blots were quantified using Bio-Rad gel reader which employs Quality I software (Bio-Rad, Hercules, Calif.).

myeloid cells [5] = test: Bone marrow aspirate of multiple myeloma patients, flow cytometry cell count (CD45/CD38); format: cell-based, human; conditions: patient #1; 12 hours
[6] = system: CHOP/GADD153 and cleaved caspase 3 in MM.1S, 8226, KMS-11; test: Western blot of CHOP/GADD153 and cleaved caspase 3 in 3 MM cell lines; format: cell-based; conditions: for CHOP/GADD153 expression: PPAR agonist treatment, MM
Experimental: . Induction of UPR-mediated apoptosis following treatment of 3 MM cell lines with four different mitochondrial inhibitors for various time points was assayed by western blot analysis of CHOP and cleaved caspase 3.
Western blot analysis: Western blots were performed. Membranes were probed with monoclonal rabbit anti-GRP94, anti GRP-78, anti-PDI, anti-CHOP/GADD153, anti-cleaved caspase 3 (Cell Signaling, Danvers, Mass., USA) and monoclonal mouse anti-β-actin (Sigma, St. Louis, Mo., USA).

[7] = system: B-cell leukemia lines (NALM6, REH); format: cell-based; conditions: 24 h
Experimental: Cytotoxicity assay: Cells were incubated for 24 h at 37° C. in 5% CO2 at which time drug treatments began and continued for 24 h. At this time cells were transferred to a tube followed by centrifugation at 400 g for 5 min. The pellets were resuspended in 1 ml of Hanks solution and analyzed by Vi-Cell (Beckman Coulter, Fullerton, Calif., USA) cell viability analyzer.

Compound	apoptosis in myeloid cells (myeloid cells [1])	toxicity in plasma and myeloid cells, clofibrate versus fenofibrate (plasma cells [2]; patient #3)	Annexin-V staining in plasma cells (plasma cells [3])	CHOP/GADD153 and cleaved caspase 3 expression [4]	plasma cell count (plasma cells [2]; patient #1, 12 hours)	effect on plasma cells, fenofibrate versus clofibrate (plasma cells [2]; patient #2, 12 hours)	effect in myeloid cells (myeloid cells [5])	CHOP/GADD153 expression [6]	CHOP/GADD153 expression, fenofibrate compared to troglitazone ([6]; concentrations of similar cytotoxicity, FIG. 14c)	toxicity to B-cell leukemias, troglitazone compared to fenofibrate [7]
CCOC(=O)C(C)(C)Oc1ccc(Cl)cc1 [clofibrate]	increase in apoptosis	greater toxicity in both plasma and myeloid cells when compared to fenofibrate	little or no increase							
CC(C)OC(=O)C(C)(C)Oc1ccc(C(=O)c2ccc(Cl)cc2)cc1 [fenofibrate]	little or no effect on myeloid cells		significant increase	increased expression of GADD153/CHOP and cleaved caspase 3	dose-responsive reduction	greater effect of fenofibrate as compared to clofibrate	little or no effect	induce CHOP/GADD153 expression	higher expression of CHOP/GADD153 than troglitazone	
Cc1c(C)c2c(c(C)c1O)CCC(C)(COc1ccc(CC3SC(=O)NC3=O)cc1)O2 (centres unmarked) [troglitazone]				increased expression of GADD153/CHOP and cleaved caspase 3				induce CHOP/GADD153 expression		more toxic to B-cell leukemias
